Among the data in PubChem BioAssay AID188 (DTP/NCI, 2004) are survivor count values, retold here.

Molecules are shown by their SMILES. Values are animals surviving of animals treated; these mice carried no tumour. Survivors were counted at the toxicity check, usually on the fifth day, unless a day is given; later deaths do not show. Schedules are NCI's codes, read here as Q, the interval in days (D) or hours (H), X, the number of doses.

The test system of this experiment is CD2F1 mice, nontumored, toxicity/survival. In words: NCI In Vivo Anticancer Drug Screen. Data for tumor model Nontumored Animals (Toxicity Test) in CD2F1 (CDF1) mice.

For `CC1=CC(C)(C)Nc2ccc(Cc3ccc4c(c3)C(C)=CC(C)(C)N4)cc21`, the survivor count reads like this: (dose: 838.0 mg/kg/injection, schedule: Q01DX001 (ip), vehicle: saline) 10 of 10; (dose: 838.0 mg/kg/injection, schedule: Q01DX001 (ip), vehicle: saline with Tween-80) 9 of 10; (dose: 1048.0 mg/kg/injection, schedule: Q01DX001 (ip), vehicle: saline) 10 of 10; (dose: 1048.0 mg/kg/injection, schedule: Q01DX001 (ip), vehicle: saline with Tween-80) 9 of 10; (dose: 1310.0 mg/kg/injection, schedule: Q01DX001 (ip), vehicle: saline) 9 of 10; (dose: 1310.0 mg/kg/injection, schedule: Q01DX001 (ip), vehicle: saline with Tween-80) 8 of 10. Further, the survivor count is reported as 7 of 10 (dose: 1638.0 mg/kg/injection, schedule: Q01DX001 (ip), vehicle: saline); 5 of 10 (dose: 1638.0 mg/kg/injection, schedule: Q01DX001 (ip), vehicle: saline with Tween-80); 10 of 10 (dose: 2048.0 mg/kg/injection, schedule: Q01DX001 (ip), vehicle: other); 9 of 10 (dose: 2048.0 mg/kg/injection, schedule: Q01DX001 (ip), vehicle: saline); 2 of 10 (dose: 2048.0 mg/kg/injection, schedule: Q01DX001 (ip), vehicle: saline with Tween-80); 10 of 10 (dose: 2048.0 mg/kg/injection, schedule: Q01DX001 (oral), vehicle: other). Also, the survivor count by setting is: (dose: 2048.0 mg/kg/injection, schedule: Q01DX001 (sc), vehicle: other) 10 of 10; (dose: 2560.0 mg/kg/injection, schedule: Q01DX001 (ip), vehicle: other) 10 of 10; (dose: 2560.0 mg/kg/injection, schedule: Q01DX001 (ip), vehicle: saline) 5 of 10; (dose: 2560.0 mg/kg/injection, schedule: Q01DX001 (ip), vehicle: saline with Tween-80) 1 of 10; (dose: 2560.0 mg/kg/injection, schedule: Q01DX001 (oral), vehicle: other) 10 of 10; (dose: 2560.0 mg/kg/injection, schedule: Q01DX001 (sc), vehicle: other) 10 of 10. Moreover, the survivor count reads like this: (dose: 3200.0 mg/kg/injection, schedule: Q01DX001 (ip), vehicle: other) 10 of 10; (dose: 3200.0 mg/kg/injection, schedule: Q01DX001 (ip), vehicle: saline with Tween-80) 0 of 10; (dose: 3200.0 mg/kg/injection, schedule: Q01DX001 (oral), vehicle: other) 10 of 10; (dose: 3200.0 mg/kg/injection, schedule: Q01DX001 (sc), vehicle: other) 10 of 10; (dose: 4000.0 mg/kg/injection, schedule: Q01DX001 (ip), vehicle: other) 10 of 10; (dose: 4000.0 mg/kg/injection, schedule: Q01DX001 (ip), vehicle: saline with Tween-80) 0 of 10. Besides, the survivor count is on record as 10 of 10 (dose: 4000.0 mg/kg/injection, schedule: Q01DX001 (oral), vehicle: other); 10 of 10 (dose: 4000.0 mg/kg/injection, schedule: Q01DX001 (sc), vehicle: other); 9 of 10 (dose: 4000.0 mg/kg/injection, schedule: Q01DX005 (ip), vehicle: other); 1 of 10 (dose: 4000.0 mg/kg/injection, schedule: Q01DX005 (oral), vehicle: other); 10 of 10 (dose: 4000.0 mg/kg/injection, schedule: Q01DX005 (sc), vehicle: other); 9 of 10 (dose: 5000.0 mg/kg/injection, schedule: Q01DX001 (ip), vehicle: other). The survivor count runs as follows: (dose: 5000.0 mg/kg/injection, schedule: Q01DX001 (ip), vehicle: saline with Tween-80) 0 of 10; (dose: 5000.0 mg/kg/injection, schedule: Q01DX001 (oral), vehicle: other) 10 of 10; (dose: 5000.0 mg/kg/injection, schedule: Q01DX001 (sc), vehicle: other) 10 of 10; (dose: 5000.0 mg/kg/injection, schedule: Q01DX005 (ip), vehicle: other) 6 of 10; (dose: 5000.0 mg/kg/injection, schedule: Q01DX005 (oral), vehicle: other) 0 of 10; (dose: 5000.0 mg/kg/injection, schedule: Q01DX005 (sc), vehicle: other) 10 of 10. Also, the survivor count is, setting by setting: (dose: 6250.0 mg/kg/injection, schedule: Q01DX001 (ip), vehicle: other) 6 of 10; (dose: 6250.0 mg/kg/injection, schedule: Q01DX001 (oral), vehicle: other) 9 of 10; (dose: 6250.0 mg/kg/injection, schedule: Q01DX001 (sc), vehicle: other) 10 of 10; (dose: 6250.0 mg/kg/injection, schedule: Q01DX005 (ip), vehicle: other) 0 of 10; (dose: 6250.0 mg/kg/injection, schedule: Q01DX005 (oral), vehicle: other) 0 of 10; (dose: 6250.0 mg/kg/injection, schedule: Q01DX005 (sc), vehicle: other) 9 of 10.
As for `Nc1nc2ncc(CN(N=O)c3ccc(C(=O)NC(CCC(=O)O)C(=O)O)cc3)nc2c(=O)[nH]1` (stereo not given), the survivor count reads like this: (dose: 1.0 mg/kg/injection, schedule: Q01DX001 (ip), vehicle: water) 2 of 2; (dose: 10.0 mg/kg/injection, schedule: Q01DX001 (ip), vehicle: water) 2 of 2; (dose: 100.0 mg/kg/injection, schedule: Q01DX001 (ip), vehicle: water) 0 of 2.
